Assay results from the supplement of paper PMC10849652.
The list shows a part of the results.

The chains behind the UniProt entries cited, without tags or fusion partners. Where a name states a change or a piece, a line headed by the entry shows the natural chain unless it says otherwise.
UniProt Q08AM6: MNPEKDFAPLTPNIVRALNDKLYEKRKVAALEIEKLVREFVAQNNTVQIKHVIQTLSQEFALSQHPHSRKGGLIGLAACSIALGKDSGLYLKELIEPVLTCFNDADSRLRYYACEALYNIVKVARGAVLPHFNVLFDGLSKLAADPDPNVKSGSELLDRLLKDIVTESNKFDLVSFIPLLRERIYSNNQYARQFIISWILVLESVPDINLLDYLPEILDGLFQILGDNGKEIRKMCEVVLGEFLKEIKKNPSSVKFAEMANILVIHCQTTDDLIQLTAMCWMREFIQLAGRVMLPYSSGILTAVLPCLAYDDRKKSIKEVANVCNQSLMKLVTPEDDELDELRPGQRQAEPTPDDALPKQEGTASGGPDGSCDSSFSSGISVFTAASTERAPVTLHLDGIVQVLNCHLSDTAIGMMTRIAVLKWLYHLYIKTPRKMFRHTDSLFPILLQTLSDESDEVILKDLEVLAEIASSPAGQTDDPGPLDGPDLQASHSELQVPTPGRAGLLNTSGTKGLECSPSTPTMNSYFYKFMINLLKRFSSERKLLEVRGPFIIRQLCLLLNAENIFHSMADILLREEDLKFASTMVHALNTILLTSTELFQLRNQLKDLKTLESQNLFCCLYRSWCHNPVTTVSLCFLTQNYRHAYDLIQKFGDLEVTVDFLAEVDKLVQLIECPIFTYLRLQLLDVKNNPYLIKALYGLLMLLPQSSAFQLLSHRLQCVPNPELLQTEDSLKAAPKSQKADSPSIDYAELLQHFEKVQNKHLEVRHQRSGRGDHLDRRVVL
UniProt Q7Z6J8: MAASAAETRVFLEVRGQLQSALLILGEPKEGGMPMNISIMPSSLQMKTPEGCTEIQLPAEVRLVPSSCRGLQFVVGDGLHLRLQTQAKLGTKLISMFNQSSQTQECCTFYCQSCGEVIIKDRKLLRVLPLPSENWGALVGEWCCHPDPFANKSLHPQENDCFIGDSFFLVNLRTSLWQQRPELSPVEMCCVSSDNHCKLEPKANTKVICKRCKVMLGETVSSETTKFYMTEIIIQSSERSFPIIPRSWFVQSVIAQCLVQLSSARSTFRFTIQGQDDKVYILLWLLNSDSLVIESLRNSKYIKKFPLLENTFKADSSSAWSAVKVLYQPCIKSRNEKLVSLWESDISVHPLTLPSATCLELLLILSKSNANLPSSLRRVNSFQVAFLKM
UniProt Q9BZL1: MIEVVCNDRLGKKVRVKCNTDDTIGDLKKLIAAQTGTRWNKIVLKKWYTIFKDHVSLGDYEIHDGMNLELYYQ
UniProt P11172: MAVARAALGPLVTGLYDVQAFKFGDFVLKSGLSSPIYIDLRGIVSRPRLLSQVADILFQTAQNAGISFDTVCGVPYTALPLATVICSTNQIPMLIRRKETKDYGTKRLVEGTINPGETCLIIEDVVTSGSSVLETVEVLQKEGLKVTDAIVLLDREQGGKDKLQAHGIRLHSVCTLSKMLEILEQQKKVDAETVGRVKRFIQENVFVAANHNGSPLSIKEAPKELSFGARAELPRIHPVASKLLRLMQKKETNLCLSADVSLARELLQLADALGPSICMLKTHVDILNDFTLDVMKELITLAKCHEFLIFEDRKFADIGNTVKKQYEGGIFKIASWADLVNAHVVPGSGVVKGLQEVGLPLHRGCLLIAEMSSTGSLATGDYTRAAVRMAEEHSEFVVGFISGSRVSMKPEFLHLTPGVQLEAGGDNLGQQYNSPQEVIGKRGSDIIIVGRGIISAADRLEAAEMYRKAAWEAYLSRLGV
UniProt Q70J99: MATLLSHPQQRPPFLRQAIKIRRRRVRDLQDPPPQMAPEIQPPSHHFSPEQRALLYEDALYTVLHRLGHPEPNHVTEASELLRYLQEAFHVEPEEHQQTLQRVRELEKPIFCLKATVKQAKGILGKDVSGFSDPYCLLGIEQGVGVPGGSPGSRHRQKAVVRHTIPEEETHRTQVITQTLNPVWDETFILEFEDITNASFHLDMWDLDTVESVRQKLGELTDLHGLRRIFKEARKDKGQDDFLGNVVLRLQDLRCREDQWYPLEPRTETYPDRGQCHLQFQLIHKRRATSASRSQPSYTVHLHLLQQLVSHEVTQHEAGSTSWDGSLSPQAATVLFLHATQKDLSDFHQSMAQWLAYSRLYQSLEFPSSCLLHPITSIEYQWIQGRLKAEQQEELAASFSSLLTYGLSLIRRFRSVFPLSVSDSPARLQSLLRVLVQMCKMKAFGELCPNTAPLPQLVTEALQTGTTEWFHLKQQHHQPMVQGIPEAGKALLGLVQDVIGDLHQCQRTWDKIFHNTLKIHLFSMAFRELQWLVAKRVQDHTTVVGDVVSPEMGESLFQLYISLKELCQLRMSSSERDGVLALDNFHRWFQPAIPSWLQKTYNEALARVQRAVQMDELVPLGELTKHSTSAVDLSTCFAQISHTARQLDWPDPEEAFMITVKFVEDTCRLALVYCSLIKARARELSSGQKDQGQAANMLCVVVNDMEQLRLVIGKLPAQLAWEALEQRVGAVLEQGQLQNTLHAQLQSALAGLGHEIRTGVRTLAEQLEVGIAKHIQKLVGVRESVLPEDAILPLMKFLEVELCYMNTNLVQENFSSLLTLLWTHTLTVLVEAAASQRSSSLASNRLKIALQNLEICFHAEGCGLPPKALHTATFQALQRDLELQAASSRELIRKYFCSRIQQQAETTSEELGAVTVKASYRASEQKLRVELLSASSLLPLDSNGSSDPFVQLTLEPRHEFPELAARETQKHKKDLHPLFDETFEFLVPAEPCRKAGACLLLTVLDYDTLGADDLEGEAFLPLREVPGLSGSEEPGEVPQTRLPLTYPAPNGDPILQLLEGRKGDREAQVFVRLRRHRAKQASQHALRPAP
UniProt P26640: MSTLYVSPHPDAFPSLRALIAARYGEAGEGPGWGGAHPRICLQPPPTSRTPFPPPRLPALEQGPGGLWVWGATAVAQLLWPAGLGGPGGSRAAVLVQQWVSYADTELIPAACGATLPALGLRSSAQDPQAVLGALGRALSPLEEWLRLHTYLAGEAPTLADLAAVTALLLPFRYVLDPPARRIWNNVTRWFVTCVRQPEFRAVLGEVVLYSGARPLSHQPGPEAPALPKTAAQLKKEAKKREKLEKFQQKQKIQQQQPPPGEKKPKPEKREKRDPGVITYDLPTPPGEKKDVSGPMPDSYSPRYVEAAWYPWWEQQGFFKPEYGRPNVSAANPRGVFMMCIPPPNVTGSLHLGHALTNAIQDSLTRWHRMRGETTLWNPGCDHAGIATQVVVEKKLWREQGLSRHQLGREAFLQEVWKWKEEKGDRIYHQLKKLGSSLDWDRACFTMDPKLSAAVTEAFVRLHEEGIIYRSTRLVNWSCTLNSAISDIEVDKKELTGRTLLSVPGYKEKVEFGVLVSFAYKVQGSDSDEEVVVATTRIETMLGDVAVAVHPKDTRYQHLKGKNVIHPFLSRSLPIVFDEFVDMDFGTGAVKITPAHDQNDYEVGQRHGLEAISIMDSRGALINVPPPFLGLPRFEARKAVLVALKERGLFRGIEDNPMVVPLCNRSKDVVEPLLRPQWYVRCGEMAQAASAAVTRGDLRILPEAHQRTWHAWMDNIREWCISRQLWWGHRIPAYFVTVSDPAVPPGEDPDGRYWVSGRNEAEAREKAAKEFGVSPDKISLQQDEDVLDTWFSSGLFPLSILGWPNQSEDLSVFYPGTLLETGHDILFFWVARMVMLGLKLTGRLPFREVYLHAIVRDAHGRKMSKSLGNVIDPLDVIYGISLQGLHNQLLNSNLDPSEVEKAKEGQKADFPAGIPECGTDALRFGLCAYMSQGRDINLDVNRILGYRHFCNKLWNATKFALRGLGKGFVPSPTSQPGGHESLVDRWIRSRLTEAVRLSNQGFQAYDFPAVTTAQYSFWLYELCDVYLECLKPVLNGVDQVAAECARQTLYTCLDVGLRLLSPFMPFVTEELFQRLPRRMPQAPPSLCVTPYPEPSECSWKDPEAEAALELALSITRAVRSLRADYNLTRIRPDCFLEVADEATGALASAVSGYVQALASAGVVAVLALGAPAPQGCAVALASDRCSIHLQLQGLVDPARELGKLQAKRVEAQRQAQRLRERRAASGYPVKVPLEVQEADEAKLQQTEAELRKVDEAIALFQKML
UniProt P10746: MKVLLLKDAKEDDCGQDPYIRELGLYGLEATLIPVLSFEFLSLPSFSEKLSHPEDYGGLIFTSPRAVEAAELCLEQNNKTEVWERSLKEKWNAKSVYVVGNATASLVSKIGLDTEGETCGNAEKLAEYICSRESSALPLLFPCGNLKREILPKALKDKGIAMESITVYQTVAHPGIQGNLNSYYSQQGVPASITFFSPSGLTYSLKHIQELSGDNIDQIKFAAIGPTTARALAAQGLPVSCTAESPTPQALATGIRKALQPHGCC
UniProt Q16851: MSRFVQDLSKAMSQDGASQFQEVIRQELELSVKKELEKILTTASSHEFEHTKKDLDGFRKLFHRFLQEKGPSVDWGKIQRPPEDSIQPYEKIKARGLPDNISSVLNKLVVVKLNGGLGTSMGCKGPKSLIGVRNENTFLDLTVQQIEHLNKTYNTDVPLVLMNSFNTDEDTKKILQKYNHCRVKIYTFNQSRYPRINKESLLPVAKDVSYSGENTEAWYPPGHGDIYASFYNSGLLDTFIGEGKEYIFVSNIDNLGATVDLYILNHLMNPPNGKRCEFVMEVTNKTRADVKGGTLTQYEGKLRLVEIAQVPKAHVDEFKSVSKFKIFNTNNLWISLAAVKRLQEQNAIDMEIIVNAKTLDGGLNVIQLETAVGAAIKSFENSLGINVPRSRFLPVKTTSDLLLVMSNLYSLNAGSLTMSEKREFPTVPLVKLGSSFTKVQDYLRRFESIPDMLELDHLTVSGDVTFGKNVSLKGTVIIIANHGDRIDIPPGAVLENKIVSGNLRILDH
UniProt Q8TAA9: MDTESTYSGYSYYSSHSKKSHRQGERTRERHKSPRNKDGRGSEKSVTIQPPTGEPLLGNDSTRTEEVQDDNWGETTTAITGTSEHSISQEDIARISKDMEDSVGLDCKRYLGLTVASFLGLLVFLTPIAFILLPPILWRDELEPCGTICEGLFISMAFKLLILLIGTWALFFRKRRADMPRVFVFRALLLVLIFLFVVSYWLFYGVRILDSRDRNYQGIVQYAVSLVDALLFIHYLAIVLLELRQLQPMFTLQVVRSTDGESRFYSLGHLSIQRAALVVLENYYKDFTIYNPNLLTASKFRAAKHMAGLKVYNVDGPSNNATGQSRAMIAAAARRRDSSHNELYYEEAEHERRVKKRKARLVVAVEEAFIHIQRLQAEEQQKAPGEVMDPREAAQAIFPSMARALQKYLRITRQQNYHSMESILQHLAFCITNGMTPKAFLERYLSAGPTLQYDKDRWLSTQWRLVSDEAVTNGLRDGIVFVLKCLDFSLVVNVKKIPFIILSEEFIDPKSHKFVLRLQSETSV
UniProt P63027, whole entry, looked up: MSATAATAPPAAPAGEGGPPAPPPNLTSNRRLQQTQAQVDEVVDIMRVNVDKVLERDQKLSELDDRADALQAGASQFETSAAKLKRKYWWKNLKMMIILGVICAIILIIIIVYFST
UniProt Q9H1C4: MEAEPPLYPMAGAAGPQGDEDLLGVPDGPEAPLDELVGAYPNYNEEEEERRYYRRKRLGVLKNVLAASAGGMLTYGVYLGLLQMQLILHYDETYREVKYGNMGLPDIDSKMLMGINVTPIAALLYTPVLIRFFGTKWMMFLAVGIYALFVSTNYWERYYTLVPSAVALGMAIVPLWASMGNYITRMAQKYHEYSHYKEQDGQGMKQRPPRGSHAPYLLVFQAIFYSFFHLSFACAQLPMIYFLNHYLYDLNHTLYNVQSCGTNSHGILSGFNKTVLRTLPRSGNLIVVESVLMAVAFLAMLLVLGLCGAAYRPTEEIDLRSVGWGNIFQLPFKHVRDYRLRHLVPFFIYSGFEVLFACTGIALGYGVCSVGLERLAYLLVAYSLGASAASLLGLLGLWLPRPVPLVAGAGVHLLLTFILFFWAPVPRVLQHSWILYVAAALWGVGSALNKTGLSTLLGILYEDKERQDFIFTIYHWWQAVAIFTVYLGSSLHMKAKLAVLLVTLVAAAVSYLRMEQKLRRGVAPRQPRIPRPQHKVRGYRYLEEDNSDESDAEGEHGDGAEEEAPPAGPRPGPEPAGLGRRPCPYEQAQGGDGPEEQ
UniProt O60701: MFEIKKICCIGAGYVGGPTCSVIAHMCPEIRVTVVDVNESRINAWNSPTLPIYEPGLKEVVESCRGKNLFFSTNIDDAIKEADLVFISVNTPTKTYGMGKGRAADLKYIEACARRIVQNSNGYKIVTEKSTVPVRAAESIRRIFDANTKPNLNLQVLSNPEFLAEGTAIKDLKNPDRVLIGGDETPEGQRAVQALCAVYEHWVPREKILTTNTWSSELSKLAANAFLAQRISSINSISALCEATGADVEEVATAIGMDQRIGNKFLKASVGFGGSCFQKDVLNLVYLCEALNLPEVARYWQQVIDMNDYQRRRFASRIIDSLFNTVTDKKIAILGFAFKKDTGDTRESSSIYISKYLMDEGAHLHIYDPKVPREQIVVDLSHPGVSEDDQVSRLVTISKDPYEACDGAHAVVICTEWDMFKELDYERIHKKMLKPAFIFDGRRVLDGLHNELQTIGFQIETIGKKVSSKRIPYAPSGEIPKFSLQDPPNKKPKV

Assays:
Experiment in all cases: log2 fold change, soluble protein after heating vs DMSO (PISA); higher = thermal stabilisation; K562 cells, 10 uM, 30 min; active = over 0.2 and 3.5 SD of the protein, either way, in both replicates (recomputed)
[1] = compound: COC1=CC=C(C=C1)CN2C=CC3=C2C=C(C=C3)C(=O)NO
Procedure, shortened: (§1)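 For each measurement, 10 μM compound was applied for 30 min to K562 cells at 2×10^6 cells/mL. Aliquots were heated for 3 min across 48°C-58°C, pooled, and extracted in PBS with 0.5% NP-40 at 4°C; the supernatant after 21,000xg for 90 min was soluble protein. This was quantified by TMTpro 16plex LC-MS/MS with channel sums equalised, and thermal stability was reported relative to control samples from duplicates, on a log2 fold-change scale.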

filanesib = compound: CON(C)C(=O)N1N=C(c2cc(F)ccc2F)S[C@@]1(CCCN)c1ccccc1 [filanesib]
Procedure, shortened: as §1

zotarolimus = compound: CO[C@H]1C[C@@H]2CC[C@@H](C)[C@@](O)(O2)C(=O)C(=O)N2CCCC[C@H]2C(=O)O[C@H]([C@H](C)C[C@@H]2CC[C@H](n3cnnn3)[C@H](OC)C2)CC(=O)[C@H](C)/C=C(\C)[C@@H](O)[C@@H](OC)C(=O)[C@H](C)C[C@H](C)/C=C/C=C/C=C/1C [zotarolimus]
Procedure, shortened: as §1

idasanutlin = compound: COc1cc(C(=O)O)ccc1NC(=O)[C@@H]1N[C@@H](CC(C)(C)C)[C@](C#N)(c2ccc(Cl)cc2F)[C@H]1c1cccc(Cl)c1F [idasanutlin]
Procedure, shortened: as §1

alisertib = compound: COc1cc(Nc2ncc3c(n2)-c2ccc(Cl)cc2C(c2c(F)cccc2OC)=NC3)ccc1C(=O)O [alisertib]
Procedure, shortened: as §1

[2] = compound: COc1cc2nc(-c3cc(F)ccc3O)nc(N[C@@H]3CNC[C@H]3C(C)(C)O)c2cc1OC
Procedure, shortened: as §1

gefitinib = compound: COc1cc2ncnc(Nc3ccc(F)c(Cl)c3)c2cc1OCCCN1CCOCC1 [gefitinib]
Procedure, shortened: as §1

[3] = compound: COc1cccc2cc(-c3nc([C@H]4CC[C@H](C(=O)O)CC4)n4ncnc(N)c34)[nH]c12
Procedure, shortened: as §1

lapatinib = compound: CS(=O)(=O)CCNCc1ccc(-c2ccc3ncnc(Nc4ccc(OCc5cccc(F)c5)c(Cl)c4)c3c2)o1 [lapatinib]
Procedure, shortened: as §1

pictilisib = compound: CS(=O)(=O)N1CCN(Cc2cc3nc(-c4cccc5[nH]ncc45)nc(N4CCOCC4)c3s2)CC1 [pictilisib]
Procedure, shortened: as §1

[4] = compound: CS(=O)(=O)c1ccc(-c2cnc(N)c(C(=O)Nc3ccccc3)n2)cc1
Procedure, shortened: as §1

crizotinib = compound: C[C@@H](Oc1cc(-c2cnn(C3CCNCC3)c2)cnc1N)c1c(Cl)ccc(F)c1Cl [crizotinib]
Procedure, shortened: as §1

[5] = compound: C[C@@H]1COCCN1C2=NC(=NC(=C2)C3(CC3)S(=O)(=O)C)C4=C5C=CNC5=CC=C4
Procedure, shortened: as §1

[6] = compound: C[C@H](C1=CC=C(C=C1)C(=O)NC2=C3C=CNC3=NC=C2)N
Procedure, shortened: as §1

duvelisib = compound: C[C@H](Nc1ncnc2nc[nH]c12)c1cc2cccc(Cl)c2c(=O)n1-c1ccccc1 [duvelisib]
Procedure, shortened: as §1

gandotinib = compound: Cc1cc(Nc2cc(CN3CCOCC3)c3nc(C)c(Cc4ccc(Cl)cc4F)n3n2)n[nH]1 [gandotinib]
Procedure, shortened: as §1

tozasertib = compound: Cc1cc(Nc2cc(N3CCN(C)CC3)nc(Sc3ccc(NC(=O)C4CC4)cc3)n2)n[nH]1 [tozasertib]
Procedure, shortened: as §1

[7] = compound: Cc1cc(SCc2sc(-c3ccc(C(F)(F)F)cc3)nc2C)ccc1OCC(=O)O
Procedure, shortened: as §1

doramapimod = compound: Cc1ccc(-n2nc(C(C)(C)C)cc2NC(=O)Nc2ccc(OCCN3CCOCC3)c3ccccc23)cc1 [doramapimod]
Procedure, shortened: as §1

ispinesib = compound: Cc1ccc(C(=O)N(CCCN)[C@@H](c2nc3cc(Cl)ccc3c(=O)n2Cc2ccccc2)C(C)C)cc1 [ispinesib]
Procedure, shortened: as §1

Measured: log2 fold change

URI1 (UniProt O94763)
inactive: [1] 0.011 | filanesib 0.016 | zotarolimus -0.041 | idasanutlin -0.015 | alisertib -0.004 | [2] 0.022 | gefitinib 0.008 | [3] 0.005 | lapatinib -0.023 | pictilisib -0.026 | [4] -0.012 | crizotinib -0.01 | [5] -0.104 | [6] -0.033 | duvelisib 0.014 | gandotinib 0.012 | tozasertib 0.031 | [7] -0.036 | doramapimod 0.012 | ispinesib -0.097

VAC14 (UniProt Q08AM6)
inactive: [1] 0.006 | filanesib -0.115 | zotarolimus -0.013 | idasanutlin -0.061 | alisertib -0.02 | [2] -0.005 | gefitinib -0.033 | [3] 0.048 | lapatinib 0.037 | pictilisib 0.014 | [4] 0.042 | crizotinib -0.17 | [5] 0.048 | [6] -0.044 | duvelisib -0.018 | gandotinib -0.104 | tozasertib -0.004 | [7] 0.022 | doramapimod 0.002 | ispinesib -0.091

UBE3D (UniProt Q7Z6J8)
inactive: [1] -0.005 | filanesib 0.08 | zotarolimus -0.033 | idasanutlin -0.009 | alisertib -0.088 | [2] -0.022 | gefitinib 0.035 | [3] 0.009 | lapatinib -0.069 | pictilisib 0.139 | [4] 0.002 | crizotinib 0.053 | [5] 0.128 | [6] -0.067 | gandotinib -0.147 | [7] -0.052 | doramapimod -0.01 | ispinesib -0.024

UBL5 (UniProt Q9BZL1)
inactive: [1] -0.042 | filanesib 0.02 | zotarolimus 0.046 | idasanutlin 0.03 | alisertib -0.069 | [2] 0.067 | gefitinib 0.046 | [3] -0.007 | lapatinib -0.002 | pictilisib 0.04 | [4] 0.042 | crizotinib -0.041 | [5] 0.022 | [6] -0.066 | duvelisib 0.043 | gandotinib -0.262 | tozasertib 0.039 | [7] 0.028 | doramapimod 0.025 | ispinesib 0.048

UMPS (UniProt P11172)
inactive: [1] 0.015 | filanesib -0.066 | zotarolimus -0.031 | idasanutlin -0.026 | alisertib -0.042 | [2] 0.024 | gefitinib 0.027 | [3] 0.008 | lapatinib -0.006 | pictilisib 0.033 | [4] 0.043 | crizotinib 0.015 | [5] 0.041 | [6] -0.067 | duvelisib 0.027 | gandotinib 0.03 | tozasertib 0.021 | [7] -0.006 | doramapimod -0.048 | ispinesib 0.05

UNC13D isoform 3 (UniProt Q70J99)
inactive: [1] -0.026 | filanesib 0.245 | zotarolimus 0.142 | idasanutlin 0.122 | alisertib -0.245 | [2] -0.057 | gefitinib 0.192 | [3] -0.283 | lapatinib 0.05 | pictilisib 0.068 | [4] 0.037 | crizotinib -0.073 | [5] -0.21 | [6] 0.307 | duvelisib -0.136 | gandotinib 0.08 | tozasertib 0.001 | [7] 0.123 | doramapimod 0.199 | ispinesib -0.217

UHRF1BP1L (UniProt A0JNW5)
inactive: [1] -0.027 | filanesib 0.038 | zotarolimus 0.093 | idasanutlin -0.073 | alisertib -0.08 | [2] 0.179 | gefitinib 0.05 | [3] 0.034 | lapatinib -0.006 | pictilisib -0.046 | [4] 0.001 | crizotinib -0.04 | [5] 0.031 | [6] -0.002 | gandotinib -0.038 | [7] -0.024 | doramapimod 0.046 | ispinesib 0.2

VARS (UniProt P26640)
inactive: [1] 0.008 | filanesib 0.024 | zotarolimus 0.035 | idasanutlin -0.033 | alisertib -0.072 | [2] 0.05 | gefitinib -0.004 | [3] -0.059 | lapatinib 0.004 | pictilisib 0.032 | [4] 0.015 | crizotinib -0.018 | [5] -0.007 | [6] 0.053 | duvelisib -0.002 | gandotinib -0.049 | tozasertib 0.02 | [7] 0.059 | doramapimod -0.003 | ispinesib -0.005

UROS (UniProt P10746)
inactive: [1] 0.005 | filanesib -0.005 | zotarolimus 0.101 | idasanutlin -0.019 | alisertib -0.064 | [2] 0.049 | gefitinib 0.001 | [3] -0.075 | lapatinib -0.042 | pictilisib -0.042 | [4] 0.041 | crizotinib -0.115 | [5] 0.052 | [6] -0.03 | duvelisib 0.125 | gandotinib 0.011 | tozasertib 0.01 | [7] 0.035 | doramapimod -0.041 | ispinesib 0.026

UGP2 (UniProt Q16851)
inactive: [1] 0.018 | filanesib -0.035 | zotarolimus -0.01 | idasanutlin -0.025 | alisertib -0.039 | [2] 0.019 | gefitinib 0.016 | [3] 0.029 | lapatinib 0 | pictilisib 0.133 | [4] 0.01 | crizotinib 0.028 | [5] 0.026 | [6] -0.028 | duvelisib 0.03 | gandotinib -0.014 | tozasertib -0.008 | [7] -0.024 | doramapimod -0.024 | ispinesib 0.072

VANGL1 (UniProt Q8TAA9)
inactive: [1] -0.005 | filanesib 0.147 | zotarolimus -0.048 | idasanutlin -0.1 | alisertib -0.018 | [2] -0.036 | gefitinib -0.063 | [3] 0.054 | lapatinib -0.048 | pictilisib 0.097 | [4] 0.09 | crizotinib -0.01 | [5] -0.084 | [6] -0.026 | duvelisib -0.028 | gandotinib -0.011 | tozasertib -0.035 | [7] 0.005 | doramapimod 0.043 | ispinesib 0.078

Two records drawn at random from those above:
UROS (UniProt P10746)
inactive: [1] 0.005 | filanesib -0.005 | zotarolimus 0.101 | idasanutlin -0.019 | alisertib -0.064 | [2] 0.049 | gefitinib 0.001 | [3] -0.075 | lapatinib -0.042 | pictilisib -0.042 | [4] 0.041 | crizotinib -0.115 | [5] 0.052 | [6] -0.03 | duvelisib 0.125 | gandotinib 0.011 | tozasertib 0.01 | [7] 0.035 | doramapimod -0.041 | ispinesib 0.026

VANGL1 (UniProt Q8TAA9)
inactive: [1] -0.005 | filanesib 0.147 | zotarolimus -0.048 | idasanutlin -0.1 | alisertib -0.018 | [2] -0.036 | gefitinib -0.063 | [3] 0.054 | lapatinib -0.048 | pictilisib 0.097 | [4] 0.09 | crizotinib -0.01 | [5] -0.084 | [6] -0.026 | duvelisib -0.028 | gandotinib -0.011 | tozasertib -0.035 | [7] 0.005 | doramapimod 0.043 | ispinesib 0.078

More records.

VAMP2 (UniProt P63027)
inactive: [1] 0.24 | filanesib -0.072 | zotarolimus 0.094 | idasanutlin -0.033 | alisertib -0.052 | [2] -0.224 | gefitinib 0.036 | [3] -0.017 | lapatinib 0.062 | pictilisib -0.039 | [4] -0.035 | crizotinib 0.071 | [5] 0.094 | [6] -0.273 | duvelisib 0.023 | gandotinib 0.033 | tozasertib 0.071 | [7] 0.069 | doramapimod 0.034 | ispinesib -0.005

UVRAG (UniProt Q9P2Y5)
inactive: [1] -0.095 | filanesib -0.013 | zotarolimus 0.044 | idasanutlin -0.18 | alisertib 0.066 | [2] 0.166 | gefitinib 0.017 | [3] -0.046 | lapatinib -0.012 | pictilisib 0.034 | [4] 0.103 | crizotinib -0.015 | [5] 0.039 | [6] 0.03 | duvelisib 0.229 | gandotinib 0.181 | tozasertib 0.053 | [7] 0 | doramapimod 0.014 | ispinesib -0.062

UNC93B1 (UniProt Q9H1C4)
inactive: [1] 0.069 | filanesib -0.18 | zotarolimus -0.036 | idasanutlin 0.048 | alisertib 0.134 | [2] 0.016 | gefitinib 0.048 | [3] -0.364 | lapatinib -0.019 | pictilisib 0.05 | [4] 0.032 | crizotinib -0.009 | [5] 0.031 | [6] -0.044 | duvelisib 0.355 | gandotinib -0.04 | [7] 0.03 | doramapimod -0.104 | ispinesib -0.153

UGDH (UniProt O60701)
inactive: [1] 0.164 | filanesib 0.001 | zotarolimus 0.053 | idasanutlin -0.043 | alisertib 0.067 | [2] 0.04 | gefitinib 0.118 | [3] 0.059 | lapatinib -0.036 | pictilisib 0.022 | [4] -0.106 | crizotinib 0.079 | [5] 0.041 | [6] -0.161 | gandotinib -0.064 | [7] 0.049 | doramapimod -0.106 | ispinesib 0.165

UQCC1 (UniProt Q9NVA1)
inactive: [1] -0.006 | filanesib -0.023 | zotarolimus 0.035 | idasanutlin -0.017 | alisertib 0.019 | [2] -0.113 | gefitinib -0.003 | [3] 0.018 | lapatinib 0.014 | pictilisib 0.047 | [4] -0.017 | crizotinib -0.023 | [5] -0.019 | [6] -0.095 | duvelisib 0.022 | gandotinib 0.014 | tozasertib 0.032 | [7] 0.022 | doramapimod 0.023 | ispinesib -0.075

UTP14A (UniProt Q9BVJ6)
inactive: [1] -0.114 | filanesib 0.336 | zotarolimus -0.022 | idasanutlin 0.161 | alisertib -0.077 | [2] -0.111 | gefitinib -0.062 | [3] -0.138 | lapatinib 0.156 | pictilisib -0.174 | [4] -0.059 | crizotinib -0.035 | [5] -0.382 | [6] 0.274 | gandotinib 0.151 | [7] 0.065 | doramapimod 0.172 | ispinesib -0.171
